No constants are given. Whether binding was seen depends on the method and setting. Some results given as binding are weak or reduced against the parent protein; the word gives no strength.
Experiments:
[1] = molecular target: T1, hCD123 (recombinant, construct not stated) (human) (UniProt P26951); experiment: switchSENSE, CD33 and CD123 on one chip
T1 sequence (looked up): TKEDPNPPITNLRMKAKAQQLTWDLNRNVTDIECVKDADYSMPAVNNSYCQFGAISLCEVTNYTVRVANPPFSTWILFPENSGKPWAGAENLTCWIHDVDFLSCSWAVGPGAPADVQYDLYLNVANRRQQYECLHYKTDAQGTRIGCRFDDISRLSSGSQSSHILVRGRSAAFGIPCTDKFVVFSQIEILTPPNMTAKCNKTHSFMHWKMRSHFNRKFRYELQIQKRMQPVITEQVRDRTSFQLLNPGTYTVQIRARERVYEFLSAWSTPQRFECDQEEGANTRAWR

Chains of the proteins cited; added tags and fusions are not shown. Lines headed by an entry give the natural chain unless they say otherwise; changes in a name come on top. Residues count along the entry.
UniProt P07766: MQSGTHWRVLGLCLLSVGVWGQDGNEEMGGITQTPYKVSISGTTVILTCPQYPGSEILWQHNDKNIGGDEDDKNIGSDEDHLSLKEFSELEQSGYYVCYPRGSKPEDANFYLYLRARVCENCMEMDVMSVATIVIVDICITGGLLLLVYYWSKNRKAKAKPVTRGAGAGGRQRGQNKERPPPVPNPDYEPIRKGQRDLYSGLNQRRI
UniProt P20138, residues 18-259: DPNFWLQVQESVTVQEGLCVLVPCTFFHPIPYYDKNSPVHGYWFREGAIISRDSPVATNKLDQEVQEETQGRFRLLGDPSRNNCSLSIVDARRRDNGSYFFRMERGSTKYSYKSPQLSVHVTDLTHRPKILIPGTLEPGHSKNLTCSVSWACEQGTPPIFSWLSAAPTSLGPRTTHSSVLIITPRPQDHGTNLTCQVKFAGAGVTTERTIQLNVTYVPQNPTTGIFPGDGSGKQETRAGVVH

[2] = molecular target: T1, hCD123 (recombinant, construct not stated) (human); experiment: switchSENSE, hCD33 and hCD123 co-immobilised 2:1; panel headed CD123, column kon1
[3] = molecular target: T1, hCD123 (recombinant, construct not stated) (human); experiment: switchSENSE, hCD33 and hCD123 co-immobilised 2:1; panel headed CD123, column koff1
[4] = molecular target: T2, human CD3 on primary human pan-T cells (human, UniProt P07766 23-207; P09693 23-182; P04234 22-171; P20963 22-164); experiment: Mirrorball laser scanning cytometry on primary human pan-T cells, anti-penta-His Alexa Fluor 488 detection, 600 µM HSA
T2 construct: whole, on cells; Native complex on T cells isolated from PBMC; also called CD3 on Pan-T cells

[5] = molecular target: T2, human CD3 on primary human pan-T cells; experiment: Mirrorball cytometry on primary human pan-T cells
[6] = molecular target: hCD33 (recombinant, construct not stated) (human) (UniProt P20138); experiment: switchSENSE, CD33 and CD123 on one chip
[7] = molecular target: hCD33 (recombinant, construct not stated) (human) (UniProt P20138); experiment: switchSENSE, hCD33 and hCD123 co-immobilised 2:1; panel headed CD33, column kon1
[8] = molecular target: hCD33 (recombinant, construct not stated) (human) (UniProt P20138); experiment: switchSENSE, hCD33 and hCD123 co-immobilised 2:1; panel headed CD33, column koff1
[9] = molecular target: T1, hCD123 (recombinant, construct not stated) (human); experiment: switchSENSE, hCD33 and hCD123 co-immobilised 2:1; panel headed CD123, y axis kon
[10] = molecular target: T1, hCD123 (recombinant, construct not stated) (human); experiment: switchSENSE, hCD33 and hCD123 co-immobilised 2:1; panel headed CD123, y axis koff

B1: DARPin® protein #41 (designed binder)
chain: DLGKKLLEAALEGQLDEVRELLKAGADVNAKDQEGYTPLHLAAALGHLEIVEVLLKAGADVNAKDSIGRTPLHLAAYKGHLEIVEVLLKAGADVNAQDLLGETPADLAAEQGHQDIAEVLQKAAGSPTPTPTTPTPTPTTPTPTPTGSDLGKKLLEAARAGQDDEVRELLKAGADVNAKDKDGYTPLHLAAREGHLEIVEVLLKAGADVNAKDKDGYTPLHLAAREGHLEIVEVLLKAGADVNAQDKSGKTPADLAADAGHEDIAEVLQKAAGSPTPTPTTPTPTPTTPTPTPTGSDLGQKLLEAAWAGQDDEVRELLKAGADVNAKNSRGWTPLHTAAQTGHLEIFEVLLKAGADVNAKDDKGVTPLHLAAALGHLEIVEVLLKAGADVNAQDSWGTTPADLAAKYGHEDIAEVLQKAA
notes: also called αCD123-Ni2C-αCD3
For B1, which binding [1] is on record?
The binding was “binds”.

What about the binding [2] of the same binder?
Its binding is “binds”.

What about the binding [3] of the same binder?
The binding was “binds”.

B2: DARPin® protein #8 (designed binder)
chain: DLGKKLLEAARAGQDDEVRILMANGADVNALDWLGHTPLHLAAYEGHLEIVEVLLKNGADVNAIDDNNGFTPLHLAAIDGHLEIVEVLLKNGADVNAQDKFGKTAFDISIDNGNEDLAEILQKAAGSPTPTPTTPTPTPTTPTPTPTGSDLGDKLLLAATSGQDDEVRILLAAGADVNAKDYDGDTPLHLAADEGHLEIVEVLLKAGADVNAKDYSGSTPLHAAAAYGHLEIVEVLLKAGADVNAQDVFGYTPADLAAYVGHEDIAEVLQKAAGSPTPTPTTPTPTPTTPTPTPTGSDLGQKLLEAAWAGQDDEVRELLKAGADVNAKNSRGWTPLHTAAQTGHLEIFEVLLKAGADVNAKDDKGVTPLHLAAALGHLEIVEVLLKAGADVNAQDSWGTTPADLAAKYGHEDIAEVLQKAA
notes: CD123-CD33-CD3 ankyrin repeat protein, no half-life extension; also called DARPin® #8; not shown: N-terminal His-tag
With B2 as the binder, how does the binding [4] read?
The binding was “binds”.

B3: DARPin® protein #9 (designed binder)
chain: DLGKKLLEAARAGQDDEVRILMANGADVNALDWLGHTPLHLAAYEGHLEIVEVLLKNGADVNAIDDNNGFTPLHLAAIDGHLEIVEVLLKNGADVNAQDKFGKTAFDISIDNGNEDLAEILQKAAGSPTPTPTTPTPTPTTPTPTPTGSDLGDKLLLAATSGQDDEVRILLAAGADVNAKDYDGDTPLHLAADEGHLEIVEVLLKAGADVNAKDYSGSTPLHAAAAYGHLEIVEVLLKAGADVNAQDVFGYTPADLAAYVGHEDIAEVLQKAAGSPTPTPTTPTPTPTTPTPTPTGSDLGQKLLEAAWAGQDDEVRELLKAGADVNAKNSRGWTPLHTAAQTGHLEIFEVLLKAGADVNAKNDKRVTPLHLAAALGHLEIVEVLLKAGADVNARDSWGTTPADLAAKYGHQDIAEVLQKAA
notes: CD123-CD33-CD3 ankyrin repeat protein, no half-life extension; also called DARPin® #9; not shown: N-terminal His-tag
B3 was tested. Which binding [4] did it give?
Its binding is “binds”.

B4: DARPin® protein #10 (designed binder)
chain: DLGKKLLEAARAGQDDEVRILMANGADVNALDWLGHTPLHLAAYEGHLEIVEVLLKNGADVNAIDDNNGFTPLHLAAIDGHLEIVEVLLKNGADVNAQDKFGKTAFDISIDNGNEDLAEILQKAAGSPTPTPTTPTPTPTTPTPTPTGSDLGDKLLLAATSGQDDEVRILLAAGADVNAKDYDGDTPLHLAADEGHLEIVEVLLKAGADVNAKDYSGSTPLHAAAAYGHLEIVEVLLKAGADVNAQDVFGYTPADLAAYVGHEDIAEVLQKAAGSPTPTPTTPTPTPTTPTPTPTGSDLGQKLLEAAWAGQLDEVRILLKAGADVNAKNSRGWTPLHTAAQTGHLEIFEVLLKAGADVNAKTNKRVTPLHLAAALGHLEIVEVLLKAGADVNARDTWGTTPADLAAKYGHRDIAEVLQKAA
notes: CD123-CD33-CD3 ankyrin repeat protein, no half-life extension; also called DARPin® #10; not shown: N-terminal His-tag
What does the source list for B4?
binding [5]: binds; binding [4]: binds

B5: DARPin® protein #13 (designed binder, not shown: small tags and cut ends)
chain: DLGKKLLEAARAGQDDEVRELLKAGADVNAKDYFSHTPLHLAARNGHLKIVEVLLKAGADVNAKDFAGKTPLHLAAADGHLEIVEVLLKAGADVNAQDIFGKTPADIAADAGHEDIAEVLQKAAGSPTPTPTTPTPTPTTPTPTPTGSDLGKKLLEAARAGQDDEVRILMANGADVNALDWLGHTPLHLAAYEGHLEIVEVLLKNGADVNAIDDNNGFTPLHLAAIDGHLEIVEVLLKNGADVNAQDKFGKTAFDISIDNGNEDLAEILQKAAGSPTPTPTTPTPTPTTPTPTPTGSDLGDKLLLAATSGQDDEVRILLAAGADVNAKDYDGDTPLHLAADEGHLEIVEVLLKAGADVNAKDYSGSTPLHAAAAYGHLEIVEVLLKAGADVNAQDVFGYTPADLAAYVGHEDIAEVLQKAAGSPTPTPTTPTPTPTTPTPTPTGSDLGQKLLEAAWAGQDDEVRELLKAGADVNAKNSRGWTPLHTAAQTGHLEIFEVLLKAGADVNAKNDKRVTPLHLAAALGHLEIVEVLLKAGADVNARDSWGTTPADLAAKYGHQDIAEVLQKAA
How did the binding [5] turn out when B5 was run?
The binding was “binds”.

What about the binding [4] of the same binder?
The binding was “binds”.

B6: DARPin® protein #14 (designed binder)
chain: DLGKKLLEAARAGQDDEVRELLKAGADVNAKDYFSHTPLHLAARNGHLKIVEVLLKAGADVNAKDFAGKTPLHLAAADGHLEIVEVLLKAGADVNAQDIFGKTPADIAADAGHEDIAEVLQKAAGSPTPTPTTPTPTPTTPTPTPTGSDLGKKLLEAARAGQDDEVRILMANGADVNALDWLGHTPLHLAAYEGHLEIVEVLLKNGADVNAIDDNNGFTPLHLAAIDGHLEIVEVLLKNGADVNAQDKFGKTAFDISIDNGNEDLAEILQKAAGSPTPTPTTPTPTPTTPTPTPTGSDLGDKLLLAATSGQDDEVRILLAAGADVNAKDYDGDTPLHLAADEGHLEIVEVLLKAGADVNAKDYSGSTPLHAAAAYGHLEIVEVLLKAGADVNAQDVFGYTPADLAAYVGHEDIAEVLQKAAGSPTPTPTTPTPTPTTPTPTPTGSDLGQKLLEAAWAGQLDEVRILLKAGADVNAKNSRGWTPLHTAAQTGHLEIFEVLLKAGADVNAKTNKRVTPLHLAAALGHLEIVEVLLKAGADVNARDTWGTTPADLAAKYGHRDIAEVLQKAA
notes: HSA-CD123-CD33-CD3, half-life extended form of #10; not shown: His-tag implied by anti-penta-His detection
With B6 as the binder, how does the binding [5] read?
Its binding is “binds”.

What about the binding [4] of the same binder?
The binding was “binds”.

B7: DARPin® protein #22 (designed binder)
chain: DLGKKLLEAARAGQDDEVRELLKAGADVNAKDKDGYTPLHLAAREGHLEIVEVLLKAGADVNAKDKDGYTPLHLAAREGHLEIVEVLLKAGADVNAQDKSGKTPADLAADAGHEDIAEVLQKAAGSPTPTPTTPTPTPTTPTPTPTGSDLGDKLLLAATSGQDDEVRILLAAGADVNAKDYDGDTPLHLAADEGHLEIVEVLLKAGADVNAKDYSGSTPLHAAAAYGHLEIVEVLLKAGADVNAQDVFGYTPADLAAYVGHEDIAEVLQKAAGSPTPTPTTPTPTPTTPTPTPTGSDLGQKLLEAAWAGQDDEVRILLAAGADVNAKNSRGWTPLHTAAQTGHLEIFEVLLKAGADVNAKNDKRVTPLHLAAALGHLEIVEVLLKAGADVNARDSWGTTPADLAAKYGHGDIAEVLQKLA
notes: also called Ni2C-αCD33-αCD3
With B7 as the binder, how does the binding [6] read?
Its binding is “binds”.

And the binding [7]?
Its binding is “binds”.

And the binding [8]?
Its binding is “binds”.

B8: DARPin® protein #21 (designed binder)
chain: DLGKKLLEAARAGQDDEVRILMANGADVNALDWLGHTPLHLAAYEGHLEIVEVLLKNGADVNAIDDNNGFTPLHLAAIDGHLEIVEVLLKNGADVNAQDKFGKTAFDISIDNGNEDLAEILQKAAGSPTPTPTTPTPTPTTPTPTPTGSDLGKKLLEAARAGQDDEVRELLKAGADVNAKDKDGYTPLHLAAREGHLEIVEVLLKAGADVNAKDKDGYTPLHLAAREGHLEIVEVLLKAGADVNAQDKSGKTPADLAADAGHEDIAEVLQKAAGSPTPTPTTPTPTPTTPTPTPTGSDLGQKLLEAAWAGQDDEVRILLAAGADVNAKNSRGWTPLHTAAQTGHLEIFEVLLKAGADVNAKNDKRVTPLHLAAALGHLEIVEVLLKAGADVNARDSWGTTPADLAAKYGHGDIAEVLQKLA
notes: also called αCD123-Ni2C-αCD3
For B8, which binding [1] is on record?
Its binding is “binds”.

What about the binding [9] of the same binder?
Its binding is “binds”.

What about the binding [10] of the same binder?
The binding was “binds”.

B9: DARPin® protein #12 (designed binder, not shown: small tags and cut ends)
chain: DLGKKLLEAARAGQDDEVRELLKAGADVNAKDYFSHTPLHLAARNGHLKIVEVLLKAGADVNAKDFAGKTPLHLAAADGHLEIVEVLLKAGADVNAQDIFGKTPADIAADAGHEDIAEVLQKAAGSPTPTPTTPTPTPTTPTPTPTGSDLGKKLLEAARAGQDDEVRILMANGADVNALDWLGHTPLHLAAYEGHLEIVEVLLKNGADVNAIDDNNGFTPLHLAAIDGHLEIVEVLLKNGADVNAQDKFGKTAFDISIDNGNEDLAEILQKAAGSPTPTPTTPTPTPTTPTPTPTGSDLGDKLLLAATSGQDDEVRILLAAGADVNAKDYDGDTPLHLAADEGHLEIVEVLLKAGADVNAKDYSGSTPLHAAAAYGHLEIVEVLLKAGADVNAQDVFGYTPADLAAYVGHEDIAEVLQKAAGSPTPTPTTPTPTPTTPTPTPTGSDLGQKLLEAAWAGQDDEVRELLKAGADVNAKNSRGWTPLHTAAQTGHLEIFEVLLKAGADVNAKDDKGVTPLHLAAALGHLEIVEVLLKAGADVNAQDSWGTTPADLAAKYGHEDIAEVLQKAA
For B9, which binding [5] is on record?
Its binding is “binds”.

— patent publication US20240254229A1 (Molecular Partners, published 2024)
